These are yes or no findings as the source states them, for the method shown. Some entries that bind do so weakly or less than the wild type.
How the values were obtained:
[1] = biological target: T1, human CLDN6 (human) (UniProt P56747); assay: flow cytometry on dissociated OV78 ovarian PDX tumor cells with endogenous claudins, 1 microgram of antibody per sample. The axis is labelled CLDN6, but SC27.22 also binds CLDN4 and CLDN9, so other claudins may add to the signal
T1 sequence (looked up): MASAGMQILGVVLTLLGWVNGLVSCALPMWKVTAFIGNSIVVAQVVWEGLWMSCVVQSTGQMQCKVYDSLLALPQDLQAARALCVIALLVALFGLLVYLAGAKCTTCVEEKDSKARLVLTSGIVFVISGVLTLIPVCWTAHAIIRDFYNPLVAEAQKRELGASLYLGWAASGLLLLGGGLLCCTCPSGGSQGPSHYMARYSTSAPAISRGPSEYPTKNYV

Amino acid sequences for entries named in this document (tags omitted).
UniProt O35054: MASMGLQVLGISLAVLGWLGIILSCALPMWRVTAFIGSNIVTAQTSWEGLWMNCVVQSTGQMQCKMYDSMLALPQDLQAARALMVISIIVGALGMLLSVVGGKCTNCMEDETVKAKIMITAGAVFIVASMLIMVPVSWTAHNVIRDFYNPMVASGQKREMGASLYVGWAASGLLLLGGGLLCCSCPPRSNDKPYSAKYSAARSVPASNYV
UniProt O14493: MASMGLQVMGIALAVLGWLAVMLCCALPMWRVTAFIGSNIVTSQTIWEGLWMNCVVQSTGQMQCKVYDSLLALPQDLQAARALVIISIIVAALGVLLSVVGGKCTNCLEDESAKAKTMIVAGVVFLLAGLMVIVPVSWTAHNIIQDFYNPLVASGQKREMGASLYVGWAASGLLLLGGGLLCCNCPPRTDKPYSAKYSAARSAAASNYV
UniProt O95484: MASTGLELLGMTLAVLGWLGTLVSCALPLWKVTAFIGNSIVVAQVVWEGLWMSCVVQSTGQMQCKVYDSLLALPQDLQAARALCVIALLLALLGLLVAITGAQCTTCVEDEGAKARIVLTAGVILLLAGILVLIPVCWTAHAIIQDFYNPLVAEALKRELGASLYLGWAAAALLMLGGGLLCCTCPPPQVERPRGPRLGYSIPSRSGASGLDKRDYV

[2] = biological target: mouse CLDN4 (mouse) (UniProt O35054); assay: flow cytometry (data not shown)
[3] = biological target: T2, rat CLDN4 (rat) (UniProt Q5XIT8); assay: flow cytometry (data not shown)
T2 sequence: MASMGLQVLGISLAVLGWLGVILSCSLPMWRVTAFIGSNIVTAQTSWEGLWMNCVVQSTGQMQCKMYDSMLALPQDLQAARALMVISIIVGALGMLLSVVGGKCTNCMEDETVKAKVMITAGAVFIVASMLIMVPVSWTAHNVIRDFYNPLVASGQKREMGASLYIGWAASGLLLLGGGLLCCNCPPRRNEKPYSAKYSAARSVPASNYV

[4] = biological target: human CLDN4 (human) (UniProt O14493); assay: flow cytometry on HEK-293T cells overexpressing human CLDN4 (FIG. 4A legend)
[5] = biological target: human CLDN9 (human) (UniProt O95484); assay: flow cytometry on HEK-293T cells overexpressing human CLDN9 (FIG. 4A legend)
[6] = biological target: T1, human CLDN6 (human); assay: flow cytometry, 1 microgram SC27.22 against isotype control on HEK-293T cells overexpressing human CLDN6
[7] = biological target: T1, human CLDN6 (human); assay: flow cytometry on HEK-293T cells overexpressing human CLDN6 (293T-CLDN6), 1 microgram of antibody per sample, AlexaFluor-647 anti-mouse IgG Fc secondary antibody
[8] = biological target: T1, human CLDN6 (human); assay: flow cytometry on HEK-293T cells overexpressing human CLDN6 (FIG. 4A legend)
[9] = biological target: human CLDN9 (human) (UniProt O95484); assay: flow cytometry, 10 µg/ml antibody on transduced HEK-293T cells
[10] = biological target: human CLDN4 (human) (UniProt O14493); assay: as above
[11] = biological target: T1, human CLDN6 (human); assay: as above

Measured: binding

B1: SC27.22 mouse anti-CLDN monoclonal antibody (antibody, V domains shown)
VH: QVQLQQPGAELVRPGASVKLSCKASGYTFTSYWMNWVKQRPGQGLEWIAMIHPSDSEIRLNQKFKDKATLTVDRSSSTAYMQLSSPTSEDSAVYYCARIDSYYGYLFYFDYWGQGTTLTVSS
VL: DIVLTQSPASLAVSLGQRATISCRASQTVSTSSYSYMHWFQQKPGQPPKLLIKFASNVESGVPARFSGSGSGTDFTLNIHPVEEEDISTYYCQHSWEIPWTFGGGTKLEIK
binds: all assays above

B2: SC27.1 mouse anti-CLDN monoclonal antibody (antibody, V domains shown)
VH: EVQLQESRPELVKPGASVKISCKTSGYTFTEYTLHWVKQSHGKSLEWIGGINPNNGDTIYNQKFKGKATLTVDKSSSTAYMELRSLTSEYSAVYYCARRAITVYAMDYWGQGTSVTVSS
VL: DIQMTQSSSSFSVSLGDRVTITCKASEDIYNRLAWYQQKPGNAPRLLISGATSLETGTPSRFSGSGSGKDYTLSITSLRTEDAATYYCQQYWSTPLTFGTGTKLELK
not listed: [1] | [6] | [7]
binds: all other assays above

From patent publication US20170334991A1
